From PubChem BioAssay AID1439 (NMMLSC, 2008)
Screen size: about 220,000 compounds; about 770 (0.35%) were called active. Inconclusive results, whose numbers are uncertain, are shown with a selection of clear calls. Rule as the data show it: active = binding response below about 49% or above about 150%; inconclusive = no clear call, values can overlap the other calls; inactive = in between.

The chains behind the UniProt entries cited, without tags or fusion partners.
UniProt P09471, whole entry, looked up: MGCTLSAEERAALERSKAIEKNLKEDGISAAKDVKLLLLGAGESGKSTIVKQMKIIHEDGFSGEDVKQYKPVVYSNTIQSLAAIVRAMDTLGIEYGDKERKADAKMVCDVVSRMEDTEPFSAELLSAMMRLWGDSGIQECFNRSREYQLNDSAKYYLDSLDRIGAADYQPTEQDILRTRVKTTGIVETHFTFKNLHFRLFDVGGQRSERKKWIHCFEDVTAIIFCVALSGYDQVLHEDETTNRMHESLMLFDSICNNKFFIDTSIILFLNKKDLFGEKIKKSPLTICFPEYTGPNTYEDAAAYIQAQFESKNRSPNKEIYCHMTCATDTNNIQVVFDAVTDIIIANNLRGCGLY

What follows are compounds tested against Guanine nucleotide-binding protein G(o) subunit alpha (Homo sapiens) (UniProt P09471) (assay: RGS7-Galphao binding modulators, primary screen, biochemical, multiplexed bead flow cytometry (AID 1439;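 also: fluorescent Galphao held in activated GDP-AlF4 state binding bead-coupled RGS7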)). Settings: at 10 µM, actives lie on both sides.

| Structure (SMILES) | binding response (% of control) |
| --- | --- |
| COc1ccc(CNC(=O)c2sc(=S)n(-c3ccccc3)c2N)cc1 | inconclusive: 92.7% |
| CCSc1nnc(NC(=O)Cn2cnc3c2c(=O)n(C)c(=O)n3C)s1 | inconclusive: 84.6% |
| COc1ccc(NC(=O)C(NC(=O)c2ccc(=O)[nH]c2)c2ccc(C)cc2)cc1 (centres undefined) | inactive: 108% |
| Cc1ccc(NCCC(=O)c2cccs2)cc1 | inconclusive: 78.7% |
| O=C(NN(CC(O)COc1ccccc1)CC(O)COc1ccccc1)c1ccccc1 (centres undefined) | inconclusive: 122% |
| Cc1noc(C)c1COc1ccc(C(=O)OCC(=O)OC(C)(C)C)cc1 | inconclusive: 95.1% |
| Cc1ccc(NC(=S)Nc2ccccn2)cc1C | inconclusive: 144% |
| CCOc1ccc(N/C(=N/c2nc(C)cc(C)n2)NC(=O)CC)cc1 | inconclusive: 115% |
| O=C(O)c1sccc1S(=O)(=O)N1CCN(c2ccc(C(F)(F)F)cn2)CC1 | inconclusive: 81.6% |
| C=CCn1c(SCC(=O)NC2CCCCC2)nnc1C1CCCCC1 | inactive: 118% |
| CCc1ccc(NC(=S)N(CCN(C)C)C(C)c2ccncc2)cc1 (centres undefined) | inactive: 98.2% |
| Cc1ccc(Nc2nc(N)nc(CSc3nnc(C)s3)n2)cc1 | inconclusive: 119% |
| O=C(Cn1cncn1)c1ccccc1 | inconclusive: 69.3% |
| COc1ccc(Cc2nnc(Nc3ccc(C)cc3)o2)cc1OC | inconclusive: 93.6% |
| O=C(NCCc1ccccc1)C(=O)NCC1OCCN1S(=O)(=O)c1ccc([N+](=O)[O-])cc1 (centres undefined) | inconclusive: 112% |
| c1coc(CNc2ncnc3[nH]ncc23)c1 | inconclusive: 327% |
| COc1ccc(OCCOc2ccccc2[N+](=O)[O-])cc1 | inactive: 111% |
| COc1ccc(COc2cccnc2N)cc1 | inconclusive: 97.8% |
| Cc1cc(=O)[nH]c(N/N=C/c2c(C)nn(-c3ccccc3)c2Cl)n1 | inconclusive: 110% |
| CCOC(=O)C(CCCCC(NC(C)=O)(C(=O)OCC)C(=O)OCC)(NC(C)=O)C(=O)OCC | inconclusive: 236% |
| C/C(=N\Nc1ccc([N+](=O)[O-])cc1)c1ccc(O)cc1 | inconclusive: 93.9% |
| COc1ccc(CNC(=O)Nc2ccccc2)cc1 | inconclusive: 135% |
| CCOC(=O)/C(C#N)=C/Nc1cc(F)ccc1C | inconclusive: 45.2% |
| C=CCNC(=O)CCCc1ccccc1 | inactive: 114% |

| Structure (SMILES) | binding response (% of control) |
| --- | --- |
| Cc1cc(C)c2c3c(sc2n1)C(c1cccc(F)c1)C(C#N)=C(N)O3 (centres undefined) | inactive: 95.2% |
| COc1ccc(CC(=O)Nc2ccc3nc(SC)sc3c2)cc1OC | inconclusive: 101% |
| CCN(CC)Cc1c(O)ccc2c1O/C(=C\C=C\c1ccccc1)C2=O | inconclusive: 117% |
| COc1cccc(NC(=O)[C@H](C)NC(=O)C2CCN(S(=O)(=O)c3ccc(C)cc3)CC2)c1 | inconclusive: 70.1% |
| CCN(CC)S(=O)(=O)c1cccc(N2CC(O)=C(c3ccccc3)C2=N)c1 | inconclusive: 171% |
| COc1cc(C2C(C#N)=C(N)OC3=C2C(=O)CC(C)(C)C3)ccc1OC(=O)N1CCOCC1 (centres undefined) | inactive: 98.2% |
| CN(CCc1ccccn1)C(=O)c1cccnc1Oc1ccccc1 | inconclusive: 94.3% |
| NC(=O)CC1C(=O)N(c2ccc(F)cc2)C(=O)N1NC(=O)CCc1ccccc1 (centres undefined) | inconclusive: 102% |
| COc1ccc(CN(C)Cc2cc(=O)n3ccsc3n2)c(OC)c1OC | inconclusive: 95.7% |
| c1ccc(N2CCOCCOCCOCCOCC2)cc1 | inconclusive: 27.2% |
| Cc1ccc2[nH]c(-c3ccccc3)cc(=O)c2c1 | inactive: 103% |
| CCn1c(=NC(=O)C2COc3ccccc3O2)sc2c(OC)ccc(OC)c21 (centres undefined) | inconclusive: 618% |
| O=C(O)c1ccccc1-c1ccccc1C(=O)NNc1ccc([N+](=O)[O-])cc1 | inconclusive: 107% |
| O=C(O)CNc1ccc(S(=O)(=O)C(F)(F)F)cc1[N+](=O)[O-] | inconclusive: 58.9% |
| COc1ccc(/C=C/C(=O)C2CC2)cc1COc1cccc(C)c1C | inconclusive: 92.6% |
| O=C(OCc1nnc(-c2ccccc2)o1)c1cc([N+](=O)[O-])ccc1Cl | inconclusive: 115% |
| COC(OC)c1ccnc(SCc2ccccc2Cl)n1 | inconclusive: 217% |
| O=C(N/C=N/OCc1cccc(C(F)(F)F)c1)N1OC[C@@H]2COc3ccc4ccccc4c3[C@@H]21 | inactive: 96.7% |
| CCN1CCN(CCNC(=O)Nc2ccc([N+](=O)[O-])cc2)CC1 | inconclusive: 109% |
| O=C(CCc1nc2ccccc2[nH]c1=O)N/N=C/c1ccccc1 | inactive: 100% |
| COc1cc(/C=C2\SC(=S)N(C(C(=O)O)c3ccccc3)C2=O)ccc1O (centres undefined) | inconclusive: 125% |
| CC(C)c1cc(NC(=O)c2ccccc2)cc(C(C)C)c1O | inconclusive: 102% |
| Cc1ccccc1OCC(=O)Nc1ccc2c(c1)OCCO2 | inconclusive: 100% |
| Cc1cc(C)n(/C(=C\N(C)C)C(=O)c2ccc(Cl)cc2)n1 | inconclusive: 107% |

| Structure (SMILES) | binding response (% of control) |
| --- | --- |
| COc1ccc(C2CC(=O)Oc3cc(O)cc(O)c32)cc1 (centres undefined) | inconclusive: 96.1% |
| CCCNC(=S)Nc1ccccc1 | inconclusive: 122% |
| O=C(NC1=NCCS1)c1ccc(Cl)c(S(=O)(=O)N2CCc3ccccc32)c1 | inconclusive: 124% |
| N/C(=N\c1nc2ccccc2o1)NC(=O)c1cccc(Br)c1 | inconclusive: 88.6% |
| CSc1nnc2ccc(-c3ccccn3)nn12 | inconclusive: 98.4% |
| O=c1cc[nH]c2ccc(OC(F)(F)F)cc12 | inconclusive: 74.8% |
| O=[N+]([O-])c1ccc2c(c1)S(=O)c1ccccc1-2 (centres undefined) | inconclusive: 87.5% |
| Nc1nonc1NN=C1CCCCC1 | inconclusive: 103% |
| COC(=O)C1CCN(c2cc(Cl)nc(N)n2)CC1 | inconclusive: 99.3% |
| CN1CCN(C2=NCCO2)CC1 | inconclusive: 77.5% |
| CCCC(=O)Nc1cc(C)c(NC(=O)c2cccs2)cn1 | inconclusive: 88.9% |
| Cn1c2c(c(=O)n(C)c1=O)CN(Cc1ccc(F)cc1)CN2 | inactive: 105% |
| O=C(O)Cc1ccc(O)c(O)c1 | inconclusive: 71.9% |
| Nc1nonc1C(=O)NCCNc1ccc([N+](=O)[O-])cc1 | inconclusive: -584% |
| CCc1cc(=O)[nH]c(SCCC(F)=C(F)F)n1 | inactive: 96.5% |
| Cc1ccc(-c2csc(NC(=O)C[n+]3cc(-c4ccc(C)cc4)n4c3CCC4)n2)cc1 | inconclusive: 110% |
| CCOC(=O)c1c(C)[nH]c(C(=O)CSc2nnc(-c3ccncc3)n2CC)c1C | inactive: 100% |
| Cc1csc2ncnc(N3CCN(C(=S)Nc4ccc(C(F)(F)F)cc4)CC3)c12 | inconclusive: 86.8% |
| Cn1c2ccccc2c2cc(/C=C(\NC(=O)c3ccccc3)C(=O)NCC(=O)O)ccc21 | inconclusive: 74.8% |
| Cc1ccc(NC(=O)COC(=O)[C@H](C)NC(N)=O)c(C)c1 | inconclusive: 87.8% |
| O=C(C1=C[C@@H](C2CCCCC2)C[C@@H](OCc2ccc(CO)cc2)O1)N1CCN(Cc2ccccc2)CC1 | inactive: 104% |
| O=C(N/N=C/c1cc2c(cc1Br)OCO2)C1COc2ccccc2O1 (centres undefined) | inconclusive: 93.6% |
| Cc1ccc(NC(=O)c2cncc(Br)c2)c(O)c1 | inactive: 100% |
| CCCCOC(=O)c1ccc(O)cc1 | inactive: 104% |

| Structure (SMILES) | binding response (% of control) |
| --- | --- |
| CNC(=O)COC(=O)c1cccc(S(=O)(=O)N2CCN(c3ccc(F)cc3)CC2)c1 | inconclusive: 92.9% |
| CC(=O)Nc1cccc(NC(=O)CSc2nnnn2-c2ccc3c(c2)OCO3)c1 | inconclusive: 79.6% |
| CC(=O)/C(=C\N(C)C)Sc1ccc(Cl)cc1 | inconclusive: 317% |
| CC(=O)c1c(COC(=O)c2cccc(C)c2)nc2ccccc2[n+]1[O-] | inconclusive: 167% |
| Cc1c(C)c(C)c(S(=O)(=O)n2[nH]c(=O)c(CCO)c2C)c(C)c1C | inconclusive: 101% |
| COC(CNc1ccc([N+](=O)[O-])c(NCC(OC)OC)c1C#N)OC | inconclusive: 63.5% |
| C=CCN(CC(O)c1cccc([N+](=O)[O-])c1)C(C)CCc1ccccc1 (centres undefined) | inconclusive: 105% |
| O=C(O)CCCn1cc(NC(=O)c2ccc(Br)o2)cn1 | inactive: 91% |
| Cc1ccc(-n2c(N)c(Br)c(=O)[nH]c2=O)cc1C | inconclusive: 107% |
| CCOC(=O)C1(Cc2cccc(OC)c2)CCN(Cc2ccon2)CC1 | inconclusive: 103% |
| CCNc1ccc([N+](=O)[O-])cc1 | inconclusive: 161% |
| CCC(C)NC(=S)N1CCN(C)CC1 (centres undefined) | inactive: 100% |
| Cc1ccccc1N=C1NC(=O)/C(=C/c2cccn2C)S1 | inconclusive: 121% |
| CC(O)C(=O)N/N=C/c1ccccc1C(=O)O (centres undefined) | inactive: 105% |
| Cc1cc(N2C(=O)C(O)=C(C(=O)c3cccs3)C2c2ccc(F)cc2)no1 (centres undefined) | inconclusive: 79.7% |
| N#Cc1cccnc1Oc1ccccc1 | inconclusive: 91.5% |
| O=C(N=Nc1ccc(NOC(=O)c2ccccc2Br)cc1)c1ccccc1O | inconclusive: 112% |
| O=C1Nc2ccc(F)cc2C12Nc1ccccc1-c1nnc(SCc3ccccc3Cl)nc1O2 (centres undefined) | inactive: 91.6% |
| NC(=O)c1sc2nnc(-c3ccccc3)c(-c3ccccc3)c2c1N | inconclusive: 102% |
| O=C(Nc1ccc(O)c2c(=O)cc(-c3ccccc3Cl)oc12)c1ccc(Cl)c(Cl)c1 | inconclusive: 51.5% |
| Oc1ccc(N=Cc2c(O)ccc3ccccc23)cc1 | inconclusive: 109% |
| COc1ccc(NC(=O)N2CCN(S(C)(=O)=O)CC2)c(OC)c1 | inconclusive: 93.6% |
